In all, about 33,000 sequences were measured (“E-score (-0.5 to 0.5)”: median about -8e-05, highest 2% from about 0.23 on). Some of the results follow.

This assay addresses T1, Nrg2 (UniProt P38082).
T1 sequence: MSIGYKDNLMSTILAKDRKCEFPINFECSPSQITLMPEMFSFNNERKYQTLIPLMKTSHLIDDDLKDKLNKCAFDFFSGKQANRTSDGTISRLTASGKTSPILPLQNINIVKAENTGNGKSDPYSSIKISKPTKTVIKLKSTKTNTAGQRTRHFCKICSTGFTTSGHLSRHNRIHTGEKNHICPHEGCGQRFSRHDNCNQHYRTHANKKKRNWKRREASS
The assay is described as follows: PBM E-score (8-mer binding enrichment) (E-score (-0.5 to 0.5)); higher = stronger / more preferred TF binding. The note with it: protein concentration: 100 nM; construct: GST-full length. The procedure, abridged: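 Using PURExpress in vitro transcription/translation, GST-tagged yeast transcription factors were made in full-length or DNA-binding-domain form. These were applied at about 100-200 nM to double-stranded universal all-10-mer Agilent arrays, and bound protein was detected with fluorescent anti-GST. Scans were normalised with masliner before the Universal PBM Analysis Suite assigned E-scores to ungapped eight-base words pooled with their reverse complements.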
With GGTCTTAA, the “PBM E-score” value is -0.301.

Take AACACGTG: the “PBM E-score” value is 0.184.

Take CTTTGTAC: the “PBM E-score” value was -0.0291.

Turning to ATACCCAT, the “PBM E-score” value was 0.0374.

As to TCTTGAAA, the “PBM E-score” value is 0.0357.

As for CTAGGCCA, the “PBM E-score” value is -0.0164.

Take ACACAAGC: the “PBM E-score” value was found to be 0.0524.

Consider TGACTTAA, for which the “PBM E-score” value turned out to be 0.0721.

AAATTCAA: the “PBM E-score” value was found to be 0.127.

In the case of ACACTACT, the “PBM E-score” value came to 0.0376.

Regarding CGAATCCC, the “PBM E-score” value was determined as 0.178.

On to CATCCTAA, for which the “PBM E-score” value was -0.0697.

CTCGGTGC: the “PBM E-score” value amounted to 0.0137.

With GAAAAACC, the “PBM E-score” value was -0.023.

Turning to AAATTTAC, the “PBM E-score” value is 0.102.

On to CGCACTGC, for which the “PBM E-score” value was determined as 0.0273.

As for CGTTTAAG, the “PBM E-score” value was determined as 0.00912.

For the sequence AAGCGGGG, the “PBM E-score” value is -0.179.

As to ACGCAGGG, the “PBM E-score” value was determined as 0.143.

For AACCATCG, the “PBM E-score” value was 0.116.

As to AGCTCAGC, the “PBM E-score” value was -0.0707.

Turning to GGTACCGA, the “PBM E-score” value is -0.28.

ATTGTACC: the “PBM E-score” value came to 0.0897.

For the sequence CTCACGGC, the “PBM E-score” value was -0.187.

Consider CACAGCTG, for which the “PBM E-score” value is -0.0153.

On to TACGCCGA, for which the “PBM E-score” value was -0.0919.

Turning to GGCACTTA, the “PBM E-score” value is -0.113.

Turning to AAATAGGG, the “PBM E-score” value worked out at 0.141.

AGTCTTAG: the “PBM E-score” value is -0.304.

For the sequence CAGTTAGG, the “PBM E-score” value amounted to 0.0319.

ACCTTGAG: the “PBM E-score” value is -0.00603.

Turning to CAGAATGG, the “PBM E-score” value came to 0.126.

For the sequence ACCAGGGT, the “PBM E-score” value stood at 0.218.

For GAACAGTA, the “PBM E-score” value worked out at 0.0804.

As for GGGTAAAC, the “PBM E-score” value was found to be 0.0156.

GTTATACA: the “PBM E-score” value is -0.0456.

Regarding CCGGCCCC, the “PBM E-score” value is -0.294.

As for AACTGTAC, the “PBM E-score” value was -0.214.

Regarding GTGAATCA, the “PBM E-score” value was -0.105.

Regarding TCAATGCA, the “PBM E-score” value is -0.183.

Consider CTGATGTA, for which the “PBM E-score” value came to 0.0586.

In the case of AGCGAATA, the “PBM E-score” value came to 0.0307.

As to AGACGTCT, the “PBM E-score” value was -0.057.

As to AAATGTGT, the “PBM E-score” value is 0.184.

As to AAATTCAC, the “PBM E-score” value stood at 0.0999.

For the sequence AGTTCGAG, the “PBM E-score” value turned out to be 0.223.

As for CACCGAAG, the “PBM E-score” value was determined as 0.117.

Consider ATGATCCC, for which the “PBM E-score” value came out at 0.0293.

For TGGTTGAA, the “PBM E-score” value came to 0.0184.

GGCTAAAC: the “PBM E-score” value was -0.121.

As for GATAAATA, the “PBM E-score” value was determined as 0.262.

For the sequence GGATTATA, the “PBM E-score” value was 0.24.

With GGGCGCAA, the “PBM E-score” value was 0.0315.

As for AACGTCAC, the “PBM E-score” value was -0.00893.

As for ATCATGCG, the “PBM E-score” value was found to be 0.00732.

As for CGGAGCAC, the “PBM E-score” value was -0.148.

CGCAAGGC: the “PBM E-score” value was found to be 0.203.

For ATCCTACA, the “PBM E-score” value is -0.0742.

Regarding CGCGGGTC, the “PBM E-score” value was 0.18.

On to ATTCAAAG, for which the “PBM E-score” value is -0.0908.

For the sequence ACGGGGAG, the “PBM E-score” value was -0.107.

In the case of CGTAACAG, the “PBM E-score” value came to 0.0832.

Consider CCTTAGTA, for which the “PBM E-score” value was -0.00652.

With CAACGACA, the “PBM E-score” value is -0.0277.

In the case of CAGACCTA, the “PBM E-score” value was -0.00546.

As for AACTCCGC, the “PBM E-score” value was -0.202.

Consider CTCGAAAA, for which the “PBM E-score” value is 0.0419.

CAAAAACG: the “PBM E-score” value was determined as 0.139.

As to CAACCAAG, the “PBM E-score” value stood at 0.113.

On to CGGGGGCA, for which the “PBM E-score” value is -0.307.

With ACATGAGC, the “PBM E-score” value is -0.022.

GAACGATA: the “PBM E-score” value worked out at 0.0121.

In the case of AAGCCCGG, the “PBM E-score” value was -0.131.

As to AGATACCC, the “PBM E-score” value was 0.137.

For CGCTCATA, the “PBM E-score” value was determined as 0.0692.

Turning to AGTAACAG, the “PBM E-score” value was determined as 0.00808.

On to GACGAATC, for which the “PBM E-score” value stood at 0.0804.

Take AAACCCTA: the “PBM E-score” value is 0.184.

As to CAGACCCC, the “PBM E-score” value is -0.239.

Regarding ACCTCTGG, the “PBM E-score” value is -0.115.

For GTGATAAC, the “PBM E-score” value was -0.0858.

For ACAAATCA, the “PBM E-score” value is 0.158.

Take AGAGATGG: the “PBM E-score” value was 0.124.

Take CCCCAGGG: the “PBM E-score” value turned out to be 0.0737.

Regarding TAGAGAGA, the “PBM E-score” value is -0.012.

For GGATCACA, the “PBM E-score” value is 0.128.

For the origin of these results see the supplement of paper PMC3334620.
